# Measurements reported in patent EP4582447A1 (Quaerite Biopharm Research (Beijing) Co., Ltd., dated 2025).
# No constants are given. Whether binding was seen depends on the method and setting. Some results given as binding are weak or reduced against the parent protein; the word gives no strength.
# B1: V1 (VHH)
# VHH: QLQLVESGGGSVQPGGSLRLSCEVSGRTFSSYTMGWFRQAPGKEREFVVAISKGGYKYDSVSLEARFTISKDNTKNTVYLQMNSLKPEDTAVYYCAATRAYGSSRLRLADTYEYWGQGTQVTVSS
# notes: also called candidate antibody V1; antibody V1
# Target: T1, human VEGFA121 (human, UniProt P15692-9 27-147)
# T1 sequence (looked up): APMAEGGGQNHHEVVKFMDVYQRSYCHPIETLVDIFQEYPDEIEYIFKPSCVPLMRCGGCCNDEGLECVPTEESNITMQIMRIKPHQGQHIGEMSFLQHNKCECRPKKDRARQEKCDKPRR
# Assay: ELISA, human VEGFA121 coated 0.3 µg/mL
binder,measurement,value
B1,binding,binds
